Data taken from the supplement of paper PMC12823440, “Inhibitors supercharge kinase turnover through native proteolytic circuits” (Nature, 2025).
Where a name gives a salt, the structure may show the parent alone. This is one part of the list. The calls rarely recur for the same compound in another form.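 Kinases, fused to nanoluciferase, were expressed in K562 cells; luminescence was measured every 4 h from 2 to 18 h as percent of control (DMSO = 100%, positive control = 0%). A time point is decreased if signal falls significantly (2 sigma). Hits were called by the authors by a rule that is not shown; the count of time points alone does not decide it.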

Protein sequences, listed by entry. Tags and fused reporters are not part of them. Lines headed by an entry give the natural chain unless they say otherwise; changes in a name come on top.
UniProt Q15303, whole entry R711C: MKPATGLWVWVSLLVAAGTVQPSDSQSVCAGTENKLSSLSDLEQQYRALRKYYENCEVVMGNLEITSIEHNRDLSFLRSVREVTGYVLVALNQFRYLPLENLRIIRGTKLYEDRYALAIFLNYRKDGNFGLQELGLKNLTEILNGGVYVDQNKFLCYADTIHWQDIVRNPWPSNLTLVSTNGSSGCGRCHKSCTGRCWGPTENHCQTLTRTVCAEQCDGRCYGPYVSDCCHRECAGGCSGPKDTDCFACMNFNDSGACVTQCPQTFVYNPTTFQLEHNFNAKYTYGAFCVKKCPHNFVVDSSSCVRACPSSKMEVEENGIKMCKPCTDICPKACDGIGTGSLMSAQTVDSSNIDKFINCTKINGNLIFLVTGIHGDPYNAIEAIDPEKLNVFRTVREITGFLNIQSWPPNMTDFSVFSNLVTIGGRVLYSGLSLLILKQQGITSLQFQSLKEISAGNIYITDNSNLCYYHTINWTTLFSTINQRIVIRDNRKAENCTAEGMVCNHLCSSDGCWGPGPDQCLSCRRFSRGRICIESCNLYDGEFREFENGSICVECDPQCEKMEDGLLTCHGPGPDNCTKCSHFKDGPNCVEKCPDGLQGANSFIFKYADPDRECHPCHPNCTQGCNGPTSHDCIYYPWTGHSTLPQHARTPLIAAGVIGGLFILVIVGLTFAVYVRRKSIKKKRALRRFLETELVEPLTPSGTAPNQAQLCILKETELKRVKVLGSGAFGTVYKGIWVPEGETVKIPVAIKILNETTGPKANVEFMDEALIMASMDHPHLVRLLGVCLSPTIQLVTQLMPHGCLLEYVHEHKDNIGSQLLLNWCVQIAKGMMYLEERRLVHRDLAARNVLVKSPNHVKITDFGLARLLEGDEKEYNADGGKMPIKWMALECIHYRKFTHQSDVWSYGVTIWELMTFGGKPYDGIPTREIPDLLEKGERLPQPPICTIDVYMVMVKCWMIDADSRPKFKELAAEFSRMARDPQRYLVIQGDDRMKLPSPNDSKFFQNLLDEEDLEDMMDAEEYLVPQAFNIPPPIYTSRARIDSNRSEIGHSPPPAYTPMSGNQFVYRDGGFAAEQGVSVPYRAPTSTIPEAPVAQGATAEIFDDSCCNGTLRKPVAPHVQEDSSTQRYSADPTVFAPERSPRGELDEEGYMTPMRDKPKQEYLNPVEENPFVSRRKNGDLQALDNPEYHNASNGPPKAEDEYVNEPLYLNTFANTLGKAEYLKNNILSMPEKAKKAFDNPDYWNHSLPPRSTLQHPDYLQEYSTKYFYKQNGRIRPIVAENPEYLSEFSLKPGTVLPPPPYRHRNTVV
UniProt P11362, whole entry, looked up: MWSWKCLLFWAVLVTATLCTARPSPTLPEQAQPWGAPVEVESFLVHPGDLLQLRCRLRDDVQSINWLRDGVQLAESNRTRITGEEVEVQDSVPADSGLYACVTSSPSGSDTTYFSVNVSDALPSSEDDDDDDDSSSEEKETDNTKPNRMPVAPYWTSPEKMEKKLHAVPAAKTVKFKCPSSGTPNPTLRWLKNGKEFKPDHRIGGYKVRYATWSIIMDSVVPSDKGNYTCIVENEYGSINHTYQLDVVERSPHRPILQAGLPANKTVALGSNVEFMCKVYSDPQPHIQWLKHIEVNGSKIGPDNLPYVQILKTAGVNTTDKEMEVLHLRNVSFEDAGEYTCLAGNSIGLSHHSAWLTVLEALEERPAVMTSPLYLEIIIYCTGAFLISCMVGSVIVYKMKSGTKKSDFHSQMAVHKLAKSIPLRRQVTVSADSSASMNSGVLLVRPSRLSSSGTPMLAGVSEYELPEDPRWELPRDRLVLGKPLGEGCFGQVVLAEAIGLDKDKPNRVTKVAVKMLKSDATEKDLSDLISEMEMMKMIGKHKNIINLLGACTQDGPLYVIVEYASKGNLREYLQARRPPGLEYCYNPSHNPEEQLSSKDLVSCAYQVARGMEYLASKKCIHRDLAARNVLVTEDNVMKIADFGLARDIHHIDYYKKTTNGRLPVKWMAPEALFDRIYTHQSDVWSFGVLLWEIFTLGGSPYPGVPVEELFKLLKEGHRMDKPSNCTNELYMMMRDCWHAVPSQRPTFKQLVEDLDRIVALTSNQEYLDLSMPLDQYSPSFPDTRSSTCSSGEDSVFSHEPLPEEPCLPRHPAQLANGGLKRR
UniProt P21802, whole entry, looked up: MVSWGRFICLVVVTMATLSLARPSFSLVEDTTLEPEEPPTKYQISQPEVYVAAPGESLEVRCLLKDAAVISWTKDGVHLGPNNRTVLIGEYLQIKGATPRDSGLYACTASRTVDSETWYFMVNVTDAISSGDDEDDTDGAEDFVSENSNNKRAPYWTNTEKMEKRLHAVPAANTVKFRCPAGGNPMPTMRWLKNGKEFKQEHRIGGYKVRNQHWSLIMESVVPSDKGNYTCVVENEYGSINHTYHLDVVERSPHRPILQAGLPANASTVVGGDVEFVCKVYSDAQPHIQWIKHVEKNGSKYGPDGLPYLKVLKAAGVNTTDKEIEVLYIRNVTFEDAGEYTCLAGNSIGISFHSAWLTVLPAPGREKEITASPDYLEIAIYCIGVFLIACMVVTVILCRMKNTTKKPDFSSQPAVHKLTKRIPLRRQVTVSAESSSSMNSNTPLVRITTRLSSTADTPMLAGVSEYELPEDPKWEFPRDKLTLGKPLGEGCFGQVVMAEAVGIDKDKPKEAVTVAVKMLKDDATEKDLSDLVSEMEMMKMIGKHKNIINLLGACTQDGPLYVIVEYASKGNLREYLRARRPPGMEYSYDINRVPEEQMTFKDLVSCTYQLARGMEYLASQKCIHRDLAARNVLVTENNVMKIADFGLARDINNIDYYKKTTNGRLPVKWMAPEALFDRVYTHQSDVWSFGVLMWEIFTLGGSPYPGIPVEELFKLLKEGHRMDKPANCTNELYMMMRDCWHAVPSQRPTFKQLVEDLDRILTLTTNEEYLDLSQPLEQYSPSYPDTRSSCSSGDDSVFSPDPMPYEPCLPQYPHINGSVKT
UniProt P22607, whole entry, looked up: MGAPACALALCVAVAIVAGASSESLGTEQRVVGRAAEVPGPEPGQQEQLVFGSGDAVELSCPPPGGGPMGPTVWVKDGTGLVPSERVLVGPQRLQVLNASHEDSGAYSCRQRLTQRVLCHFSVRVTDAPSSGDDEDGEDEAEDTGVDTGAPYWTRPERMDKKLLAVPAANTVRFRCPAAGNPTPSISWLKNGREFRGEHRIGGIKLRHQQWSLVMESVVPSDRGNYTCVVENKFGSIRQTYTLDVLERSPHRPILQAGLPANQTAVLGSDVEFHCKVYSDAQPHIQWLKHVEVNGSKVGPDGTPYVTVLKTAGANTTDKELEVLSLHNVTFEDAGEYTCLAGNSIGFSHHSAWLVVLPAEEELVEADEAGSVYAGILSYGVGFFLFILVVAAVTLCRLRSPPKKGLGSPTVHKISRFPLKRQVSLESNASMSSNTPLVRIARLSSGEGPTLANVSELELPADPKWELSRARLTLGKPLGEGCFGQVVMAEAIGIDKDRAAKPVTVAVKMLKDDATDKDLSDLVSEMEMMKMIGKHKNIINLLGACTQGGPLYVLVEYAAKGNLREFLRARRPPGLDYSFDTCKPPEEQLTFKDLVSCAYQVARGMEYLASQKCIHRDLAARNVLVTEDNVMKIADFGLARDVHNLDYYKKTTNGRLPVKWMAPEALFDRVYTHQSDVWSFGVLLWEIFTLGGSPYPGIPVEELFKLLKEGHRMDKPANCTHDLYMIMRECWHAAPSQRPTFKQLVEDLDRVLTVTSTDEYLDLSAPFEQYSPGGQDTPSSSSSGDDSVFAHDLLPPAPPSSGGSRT
UniProt P36888, whole entry: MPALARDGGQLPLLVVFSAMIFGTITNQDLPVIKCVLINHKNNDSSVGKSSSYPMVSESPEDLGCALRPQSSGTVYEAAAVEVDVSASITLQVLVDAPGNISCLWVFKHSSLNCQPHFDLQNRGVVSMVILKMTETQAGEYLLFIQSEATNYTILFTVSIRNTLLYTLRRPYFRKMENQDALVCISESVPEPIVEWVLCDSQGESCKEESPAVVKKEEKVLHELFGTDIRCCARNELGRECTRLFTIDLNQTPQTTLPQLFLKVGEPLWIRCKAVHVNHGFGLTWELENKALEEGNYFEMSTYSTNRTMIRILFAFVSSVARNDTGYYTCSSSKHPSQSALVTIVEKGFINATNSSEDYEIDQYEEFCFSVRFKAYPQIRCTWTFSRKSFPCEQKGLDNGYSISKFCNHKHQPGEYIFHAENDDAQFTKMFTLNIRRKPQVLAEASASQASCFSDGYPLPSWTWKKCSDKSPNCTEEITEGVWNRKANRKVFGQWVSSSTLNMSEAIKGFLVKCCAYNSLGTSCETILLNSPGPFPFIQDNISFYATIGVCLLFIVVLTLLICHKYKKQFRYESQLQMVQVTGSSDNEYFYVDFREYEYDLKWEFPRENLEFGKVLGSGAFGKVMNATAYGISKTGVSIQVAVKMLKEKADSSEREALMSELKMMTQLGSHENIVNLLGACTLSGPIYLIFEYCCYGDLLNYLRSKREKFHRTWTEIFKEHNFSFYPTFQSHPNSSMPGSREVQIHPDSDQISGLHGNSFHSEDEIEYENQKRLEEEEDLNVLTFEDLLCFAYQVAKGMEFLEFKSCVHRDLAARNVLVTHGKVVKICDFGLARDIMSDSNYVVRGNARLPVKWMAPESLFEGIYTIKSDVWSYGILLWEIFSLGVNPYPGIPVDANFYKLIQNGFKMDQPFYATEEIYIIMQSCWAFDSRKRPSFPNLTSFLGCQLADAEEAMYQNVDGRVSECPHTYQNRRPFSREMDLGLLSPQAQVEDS
UniProt P06241, whole entry, looked up: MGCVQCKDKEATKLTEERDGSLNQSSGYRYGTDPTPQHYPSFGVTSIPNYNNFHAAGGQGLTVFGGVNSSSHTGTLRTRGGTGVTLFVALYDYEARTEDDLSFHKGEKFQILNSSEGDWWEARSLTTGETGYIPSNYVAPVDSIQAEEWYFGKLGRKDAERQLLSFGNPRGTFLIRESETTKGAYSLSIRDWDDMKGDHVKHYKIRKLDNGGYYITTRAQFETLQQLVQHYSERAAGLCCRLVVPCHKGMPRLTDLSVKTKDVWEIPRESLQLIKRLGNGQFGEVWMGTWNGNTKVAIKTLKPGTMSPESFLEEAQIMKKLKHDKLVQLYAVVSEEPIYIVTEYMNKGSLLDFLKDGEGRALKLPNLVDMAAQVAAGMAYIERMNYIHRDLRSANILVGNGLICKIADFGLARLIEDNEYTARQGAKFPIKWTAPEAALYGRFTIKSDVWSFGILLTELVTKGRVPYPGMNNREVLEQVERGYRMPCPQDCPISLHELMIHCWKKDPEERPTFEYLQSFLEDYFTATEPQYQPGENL
UniProt P14616: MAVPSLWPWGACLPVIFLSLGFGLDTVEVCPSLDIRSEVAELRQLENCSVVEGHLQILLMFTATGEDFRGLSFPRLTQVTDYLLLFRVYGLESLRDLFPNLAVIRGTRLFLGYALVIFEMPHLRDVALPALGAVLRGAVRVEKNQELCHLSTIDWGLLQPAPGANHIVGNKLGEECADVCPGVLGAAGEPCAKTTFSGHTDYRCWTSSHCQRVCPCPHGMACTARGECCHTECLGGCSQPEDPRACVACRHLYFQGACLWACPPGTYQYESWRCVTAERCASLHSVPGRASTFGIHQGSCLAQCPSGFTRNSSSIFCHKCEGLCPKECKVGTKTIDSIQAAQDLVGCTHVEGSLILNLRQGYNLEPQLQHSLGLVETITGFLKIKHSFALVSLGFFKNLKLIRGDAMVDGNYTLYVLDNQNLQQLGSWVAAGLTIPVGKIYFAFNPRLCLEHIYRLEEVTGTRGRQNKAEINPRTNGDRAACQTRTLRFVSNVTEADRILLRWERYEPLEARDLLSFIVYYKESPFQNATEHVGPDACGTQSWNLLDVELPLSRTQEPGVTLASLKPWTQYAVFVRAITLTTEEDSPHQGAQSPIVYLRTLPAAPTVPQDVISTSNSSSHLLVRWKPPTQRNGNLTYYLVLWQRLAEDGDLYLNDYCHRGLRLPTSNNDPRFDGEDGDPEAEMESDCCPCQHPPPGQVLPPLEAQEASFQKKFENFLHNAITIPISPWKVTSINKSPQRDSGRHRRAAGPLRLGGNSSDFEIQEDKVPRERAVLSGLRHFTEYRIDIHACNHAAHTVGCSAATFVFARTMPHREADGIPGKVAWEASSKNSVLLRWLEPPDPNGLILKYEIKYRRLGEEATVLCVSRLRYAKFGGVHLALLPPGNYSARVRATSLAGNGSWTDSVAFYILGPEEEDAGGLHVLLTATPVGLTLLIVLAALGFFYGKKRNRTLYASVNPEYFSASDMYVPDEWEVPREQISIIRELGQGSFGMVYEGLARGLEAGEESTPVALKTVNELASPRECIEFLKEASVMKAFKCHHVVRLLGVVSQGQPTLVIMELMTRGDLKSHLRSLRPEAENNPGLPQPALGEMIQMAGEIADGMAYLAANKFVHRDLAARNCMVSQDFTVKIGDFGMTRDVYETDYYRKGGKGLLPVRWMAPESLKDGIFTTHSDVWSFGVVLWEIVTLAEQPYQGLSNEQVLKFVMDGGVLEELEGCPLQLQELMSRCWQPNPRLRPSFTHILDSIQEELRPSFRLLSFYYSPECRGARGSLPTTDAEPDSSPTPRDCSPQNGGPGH

Assays:
Assay in all cases: kinase-Nluc reporter destabilization hit call (1 = scored as downregulated) (binary); higher = compound decreases kinase abundance
Conditions in all cases: K562, 2-18 h
EGFR = EGFR (UniProt P00533)
EGFR_G719S = EGFR_G719S (UniProt P00533)
EGFR_G719S_T790M = EGFR_G719S_T790M (UniProt P00533)
EGFR_L718V = EGFR_L718V (UniProt P00533)
EGFR_L858R = EGFR_L858R (UniProt P00533)
EGFR_L861Q = EGFR_L861Q (UniProt P00533)
EGFR_T790M = EGFR_T790M (UniProt P00533)
EPHA2 = EPHA2 (UniProt P29317)
ERBB3 = ERBB3 (UniProt P21860)
[1] = target: ERBB4_R711C (clone: ERBB4_mut) (UniProt Q15303)
ERN1 = ERN1 (UniProt O75460)
FGFR1 = FGFR1 (UniProt P11362)
FGFR2 = FGFR2 (UniProt P21802)
FGFR3 = FGFR3 (UniProt P22607)
FGR = FGR (UniProt P09769)
FLT3 = FLT3 (UniProt P36888)
FYN = FYN (UniProt P06241)
GSK3A = GSK3A (UniProt P49840)
HER2 = HER2 (UniProt P04626)
INSRR = INSRR (UniProt P14616)

Cc1cc(Nc2ncc(Cl)c(Nc3ccccc3S(=O)(=O)C(C)C)n2)c(OC(C)C)cc1C1CCNCC1 [Ceritinib dihydrochloride]
kinase-Nluc reporter destabilization hit call (EGFR; 2.5 µM): inactive: 0 | kinase-Nluc reporter destabilization hit call (EGFR_G719S; 2.5 µM): inactive: 0 | kinase-Nluc reporter destabilization hit call (EGFR_G719S_T790M; 2.5 µM): inactive: 0 | kinase-Nluc reporter destabilization hit call (EGFR_L718V; 2.5 µM): inactive: 0 | kinase-Nluc reporter destabilization hit call (EGFR_L858R; 2.5 µM): inactive: 0 | kinase-Nluc reporter destabilization hit call (EGFR_L861Q; 2.5 µM): inactive: 0 | kinase-Nluc reporter destabilization hit call (EGFR_T790M; 2.5 µM): inactive: 0 | kinase-Nluc reporter destabilization hit call (EPHA2; 2.5 µM): inactive: 0 | kinase-Nluc reporter destabilization hit call (ERBB3; 2.5 µM): inactive: 0 | kinase-Nluc reporter destabilization hit call ([1]; 2.5 µM): inactive: 0 | kinase-Nluc reporter destabilization hit call (ERN1; 2.5 µM): inactive: 0 | kinase-Nluc reporter destabilization hit call (FGFR1; 2.5 µM): inactive: 0 | kinase-Nluc reporter destabilization hit call (FGFR2; 2.5 µM): inactive: 0 | kinase-Nluc reporter destabilization hit call (FGFR3; 2.5 µM): inactive: 0 | kinase-Nluc reporter destabilization hit call (FGR; 2.5 µM): inactive: 0 | kinase-Nluc reporter destabilization hit call (FLT3; 2.5 µM): inactive: 0 | kinase-Nluc reporter destabilization hit call (FYN; 2.5 µM): inactive: 0 | kinase-Nluc reporter destabilization hit call (GSK3A; 2.5 µM): inactive: 0 | kinase-Nluc reporter destabilization hit call (HER2; 2.5 µM): inactive: 0 | kinase-Nluc reporter destabilization hit call (INSRR; 2.5 µM): inactive: 0

COc1cc2c(-c3cnn4cc(N5CCC(N6CCN(C)CC6)CC5)cnc34)ccnc2cc1F [ALK2-IN-4 (succinate)]
kinase-Nluc reporter destabilization hit call (EGFR; 10 µM): inactive: 0 | kinase-Nluc reporter destabilization hit call (EGFR_G719S; 10 µM): inactive: 0 | kinase-Nluc reporter destabilization hit call (EGFR_G719S_T790M; 10 µM): inactive: 0 | kinase-Nluc reporter destabilization hit call (EGFR_L718V; 10 µM): inactive: 0 | kinase-Nluc reporter destabilization hit call (EGFR_L858R; 10 µM): inactive: 0 | kinase-Nluc reporter destabilization hit call (EGFR_L861Q; 10 µM): inactive: 0 | kinase-Nluc reporter destabilization hit call (EGFR_T790M; 10 µM): inactive: 0 | kinase-Nluc reporter destabilization hit call (EPHA2; 10 µM): inactive: 0 | kinase-Nluc reporter destabilization hit call (ERBB3; 10 µM): inactive: 0 | kinase-Nluc reporter destabilization hit call ([1]; 10 µM): inactive: 0 | kinase-Nluc reporter destabilization hit call (ERN1; 10 µM): inactive: 0 | kinase-Nluc reporter destabilization hit call (FGFR1; 10 µM): inactive: 0 | kinase-Nluc reporter destabilization hit call (FGFR2; 10 µM): inactive: 0 | kinase-Nluc reporter destabilization hit call (FGFR3; 10 µM): inactive: 0 | kinase-Nluc reporter destabilization hit call (FGR; 10 µM): inactive: 0 | kinase-Nluc reporter destabilization hit call (FLT3; 10 µM): inactive: 0 | kinase-Nluc reporter destabilization hit call (FYN; 10 µM): inactive: 0 | kinase-Nluc reporter destabilization hit call (GSK3A; 10 µM): inactive: 0 | kinase-Nluc reporter destabilization hit call (HER2; 10 µM): inactive: 0 | kinase-Nluc reporter destabilization hit call (INSRR; 10 µM): inactive: 0

FC(F)(F)c1ccc(CNc2ccc(Cc3c[nH]c4ncc(Cl)cc34)cn2)cn1 [Pexidartinib]
kinase-Nluc reporter destabilization hit call (EGFR; 10 µM): inactive: 0 | kinase-Nluc reporter destabilization hit call (EGFR_G719S; 10 µM): inactive: 0 | kinase-Nluc reporter destabilization hit call (EGFR_G719S_T790M; 10 µM): inactive: 0 | kinase-Nluc reporter destabilization hit call (EGFR_L718V; 10 µM): inactive: 0 | kinase-Nluc reporter destabilization hit call (EGFR_L858R; 10 µM): inactive: 0 | kinase-Nluc reporter destabilization hit call (EGFR_L861Q; 10 µM): inactive: 0 | kinase-Nluc reporter destabilization hit call (EGFR_T790M; 10 µM): inactive: 0 | kinase-Nluc reporter destabilization hit call (EPHA2; 10 µM): inactive: 0 | kinase-Nluc reporter destabilization hit call (ERBB3; 10 µM): inactive: 0 | kinase-Nluc reporter destabilization hit call ([1]; 10 µM): inactive: 0 | kinase-Nluc reporter destabilization hit call (ERN1; 10 µM): inactive: 0 | kinase-Nluc reporter destabilization hit call (FGFR1; 10 µM): inactive: 0 | kinase-Nluc reporter destabilization hit call (FGFR2; 10 µM): inactive: 0 | kinase-Nluc reporter destabilization hit call (FGFR3; 10 µM): inactive: 0 | kinase-Nluc reporter destabilization hit call (FGR; 10 µM): inactive: 0 | kinase-Nluc reporter destabilization hit call (FLT3; 10 µM): inactive: 0 | kinase-Nluc reporter destabilization hit call (FYN; 10 µM): inactive: 0 | kinase-Nluc reporter destabilization hit call (GSK3A; 10 µM): inactive: 0 | kinase-Nluc reporter destabilization hit call (HER2; 10 µM): inactive: 0 | kinase-Nluc reporter destabilization hit call (INSRR; 10 µM): inactive: 0

O=C(Nc1cnn2ccc(N3CCC[C@@H]3c3cc(F)ccc3F)nc12)N1CC[C@H](O)C1 [Larotrectinib]
kinase-Nluc reporter destabilization hit call (EGFR; 10 µM): inactive: 0 | kinase-Nluc reporter destabilization hit call (EGFR_G719S; 10 µM): inactive: 0 | kinase-Nluc reporter destabilization hit call (EGFR_G719S_T790M; 10 µM): inactive: 0 | kinase-Nluc reporter destabilization hit call (EGFR_L718V; 10 µM): inactive: 0 | kinase-Nluc reporter destabilization hit call (EGFR_L858R; 10 µM): inactive: 0 | kinase-Nluc reporter destabilization hit call (EGFR_L861Q; 10 µM): inactive: 0 | kinase-Nluc reporter destabilization hit call (EGFR_T790M; 10 µM): inactive: 0 | kinase-Nluc reporter destabilization hit call (EPHA2; 10 µM): inactive: 0 | kinase-Nluc reporter destabilization hit call (ERBB3; 10 µM): inactive: 0 | kinase-Nluc reporter destabilization hit call ([1]; 10 µM): inactive: 0 | kinase-Nluc reporter destabilization hit call (ERN1; 10 µM): inactive: 0 | kinase-Nluc reporter destabilization hit call (FGFR1; 10 µM): inactive: 0 | kinase-Nluc reporter destabilization hit call (FGFR2; 10 µM): inactive: 0 | kinase-Nluc reporter destabilization hit call (FGFR3; 10 µM): inactive: 0 | kinase-Nluc reporter destabilization hit call (FGR; 10 µM): inactive: 0 | kinase-Nluc reporter destabilization hit call (FLT3; 10 µM): inactive: 0 | kinase-Nluc reporter destabilization hit call (FYN; 10 µM): inactive: 0 | kinase-Nluc reporter destabilization hit call (GSK3A; 10 µM): inactive: 0 | kinase-Nluc reporter destabilization hit call (HER2; 10 µM): inactive: 0 | kinase-Nluc reporter destabilization hit call (INSRR; 10 µM): inactive: 0

C#Cc1cccc(Nc2ncnc3cc(OCCOC)c(OCCO)cc23)c1 [Desmethyl Erlotinib (hydrochloride)]
kinase-Nluc reporter destabilization hit call (EGFR; 10 µM): inactive: 0 | kinase-Nluc reporter destabilization hit call (EGFR_G719S; 10 µM): inactive: 0 | kinase-Nluc reporter destabilization hit call (EGFR_G719S_T790M; 10 µM): inactive: 0 | kinase-Nluc reporter destabilization hit call (EGFR_L718V; 10 µM): inactive: 0 | kinase-Nluc reporter destabilization hit call (EGFR_L858R; 10 µM): inactive: 0 | kinase-Nluc reporter destabilization hit call (EGFR_L861Q; 10 µM): inactive: 0 | kinase-Nluc reporter destabilization hit call (EGFR_T790M; 10 µM): inactive: 0 | kinase-Nluc reporter destabilization hit call (EPHA2; 10 µM): inactive: 0 | kinase-Nluc reporter destabilization hit call (ERBB3; 10 µM): inactive: 0 | kinase-Nluc reporter destabilization hit call ([1]; 10 µM): inactive: 0 | kinase-Nluc reporter destabilization hit call (ERN1; 10 µM): inactive: 0 | kinase-Nluc reporter destabilization hit call (FGFR1; 10 µM): inactive: 0 | kinase-Nluc reporter destabilization hit call (FGFR2; 10 µM): inactive: 0 | kinase-Nluc reporter destabilization hit call (FGFR3; 10 µM): inactive: 0 | kinase-Nluc reporter destabilization hit call (FGR; 10 µM): inactive: 0 | kinase-Nluc reporter destabilization hit call (FLT3; 10 µM): inactive: 0 | kinase-Nluc reporter destabilization hit call (FYN; 10 µM): inactive: 0 | kinase-Nluc reporter destabilization hit call (GSK3A; 10 µM): inactive: 0 | kinase-Nluc reporter destabilization hit call (HER2; 10 µM): active: 1 | kinase-Nluc reporter destabilization hit call (INSRR; 10 µM): inactive: 0
